# Assay results: PubChem BioAssay AID2685 (National Center for Advancing Translational Sciences (NCATS), 2010)
# Some of the results follow. These are further read-outs of the screen, such as a control signal, another cell line or another target. No call is given for them. The list favours compounds with an active or inconclusive main result. Words in brackets tell the shape of the fitted curve; partial curves, single points and poor fits give uncertain potencies.
# Assay: qHTS Assay for Lipid Storage Modulators in Drosophila S3 Cells;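 as to cell number change: cells counted by Cell Tracker Red CMTPX staining in the red channel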
# Conditions: BODIPY lipid droplet fluorescence, 18-24 h; for cell number change: measured here: cell count max response, cells fed with added oleic acid
# Outline: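 Drosophila S3 cells loaded with oleic acid (400 uM, as added) and compounds at several concentrations; lipid droplets imaged by 488-nm laser-scanning cytometry, 500–530 nm intensity and object ratio to cell channel. Percent activity normalized to 20 uM Triacsin C.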
# [1] = measured here: cell number channel AC50, cells fed with added oleic acid
# [2] = measured here: lipid fluorescence (Fed channel) AC50, cells fed with added oleic acid
SMILES,cell number change,AC50 [1],AC50 [2]
Cc1cc(C)cc(-c2nnc(SCC(=O)c3c(N)n(C4CC4)c(=O)[nH]c3=O)o2)c1,-15%,–,–
Cn1nc(C(=O)Nc2ccc(S(=O)(=O)N3CCCCC3)cc2)c2ccccc2c1=O,24.6%,"0.00517 µM [rising, full curve, poor fit]","29.1 µM [rising, single point]"
CCOC(=O)N1CCN(C(=O)CN(C2CCCCC2)S(=O)(=O)c2ccc(F)cc2)CC1,–,–,"1.84 µM [rising, partial curve]"
C=CCC1C=C(Cc2ccccc2)CC(CC=C)N1 (centres undefined),-2.44%,–,"2.91 µM [rising, single point]"
COc1ccc(C(=O)Oc2ccc3oc(=O)sc3c2)cc1,-5.01%,–,"29.1 µM [falling, partial curve]"
CC1(C)C(C=C(Cl)Cl)C1C(=O)N1CCN(Cc2ccccc2)CC1 (centres undefined),-46.4%,–,"6.51 µM [falling, single point]"
CC(C)C1Nc2ccc(S(=O)(=O)N3CCOCC3)cc2NC1=O (centres undefined),0.271%,"0.58 µM [rising, single point]","0.651 µM [rising, partial curve, poor fit]"
COc1cccc(C(=O)NCCS(=O)(=O)N2CCOCC2)c1,9.81%,–,"3.66 µM [falling, full curve]"
CN(C)c1ccc(/C=N/NC(=O)c2cc(=O)[nH]c3ccccc23)cc1,-12.2%,"6.51 µM [falling, single point]",–
COc1ccc(-c2c(C(F)(F)F)nn(C)c2NC(=O)c2ccco2)cc1,12.1%,–,"5.8 µM [rising, full curve]"
Cn1c(=O)[nH]c(=O)c2c1nc(SCCN1CCOCC1)n2Cc1ccccc1,-22.9%,–,"29.1 µM [falling, single point]"
O=S(=O)(Nc1nc2ccccc2nc1Cl)c1ccc2ccccc2c1,39.4%,"14.6 µM [rising, single point]","1.03 µM [rising, full curve, poor fit]"
CCc1ccc(Nc2n[n+](-c3ccccc3)c(-c3ccc(C(=O)O)cc3)s2)cc1,14.9%,–,"11.6 µM [rising, single point]"
CC(=O)Nc1nc2c(c3c1c(=O)oc1ccccc13)CC(C)CC2 (centres undefined),18.6%,–,"32.6 µM [rising, partial curve, poor fit]"
CCc1ccc(NC(=O)C(=O)N/N=C(\C)CC(=O)NCc2ccc(Cl)cc2)cc1,-0.993%,–,–
Cc1ccc(S(=O)(=O)N2CCN(C(=O)CSc3nnc(-c4ccco4)o3)CC2)cc1,–,–,"0.092 µM [falling, full curve]"
Oc1ccc(-c2cc(-c3ccc(O)cc3)nc(-c3ccccc3)n2)cc1,-52.4%,"29.1 µM [falling, single point]","29.1 µM [falling, single point]"
COc1ccc(Cc2nc3ccc(C(=O)N4CCOCC4)cc3o2)cc1,27.2%,–,"0.058 µM [rising, full curve, poor fit]"
C=CCN1C(=O)/C(=C2/Sc3ccc(OC)cc3N2C)SC1=Nc1ccc(OC)cc1,17.6%,–,–
CCSc1ncc(C)cc1[N+](=O)[O-],-39.4%,"6.51 µM [falling, partial curve, poor fit]",–
[O-][n+]1onc2c3cc(-c4ccccc4)nnc3ccc21,-0.939%,"0.731 µM [falling, single point]","0.731 µM [falling, single point]"
CCOc1ccc2nc(NCCNC(=O)Nc3cccc(C)c3)c(C#N)cc2c1,-57.5%,"16.4 µM [falling, partial curve]","18.4 µM [falling, single point]"
O=c1oc2ccccc2cc1-c1nnc(NCc2ccco2)s1,–,"4.11 µM [rising, partial curve, poor fit]","5.8 µM [rising, partial curve]"
Cc1cc(C(F)(F)F)c(C#N)c(N2CCOCC2)n1,-8.76%,"0.00517 µM [falling, full curve, poor fit]",–
COc1cc(/C=C/C(=O)c2ccc3c(c2)OCO3)cc(OC)c1OC,-1.67%,–,"29.1 µM [rising, single point]"
Cc1ccc(SCCNC(=O)c2ccccc2C)cc1,–,–,"0.731 µM [rising, single point]"
CCCN1C2CCCC1CC(NC(=O)c1ccccc1F)C2 (centres undefined),-2.86%,"0.651 µM [falling, single point]",–
CCOC(=O)N1CCC2(CC1)C(C(=O)C13CC4CC(CC(C4)C1)C3)C2(C#N)C#N (centres undefined),9.48%,–,"6.51 µM [falling, single point]"

SMILES,cell number change,AC50 [1],AC50 [2]
Cc1cccc(Nc2ncc3c(n2)CC(c2ccco2)CC3=O)c1 (centres undefined),-55.9%,"16.4 µM [falling, single point]",–
NC(=O)C1(N2CCCCC2)CCN(C2CC(=O)N(Cc3ccc(N4CCCC4=O)cc3)C2=O)CC1 (centres undefined),-46.9%,"29.1 µM [falling, single point]",–
CCOc1ccc(NC(=S)Nc2ccc(OCC)cc2)cc1,-3.73%,–,"0.103 µM [falling, full curve]"
CC1=CCCC(C)(C)C1/C=C/C(C)=N/NC(=O)c1ccncc1 (centres undefined),-1.49%,–,–
O=C(Nc1ccc(F)cc1)c1cc(S(=O)(=O)N2CCCCC2)cs1,-7.88%,–,"6.51 µM [rising, single point]"
CCOC(=O)N1CCN(C(=O)c2ccc(NS(C)(=O)=O)cc2)CC1,-35.9%,"29.1 µM [falling, single point]","29.1 µM [falling, single point]"
O=C1CC(C(=O)Nc2ccc(Br)cc2)S/C(=N\N=C\c2ccco2)N1 (centres undefined),17.3%,"2.59 µM [rising, single point]","1.64 µM [falling, partial curve]"
O=C(NCc1ccccc1Cl)c1ccc2nnsc2c1,18.5%,–,"1.3 µM [rising, full curve, poor fit]"
CCN(CC(=O)Nc1c(F)cccc1F)C(=O)c1cc(S(=O)(=O)N(C)C)ccc1N1CCCC1,–,–,"0.651 µM [rising, full curve, poor fit]"
CCOC(=O)/C(C#N)=C/c1c(N2CCN(c3cccc(Cl)c3)CC2)nc2c(C)cccn2c1=O,-23.6%,–,"6.51 µM [falling, single point]"
COc1cc(/C=C2/C(=O)N(c3ccc(Br)cc3)N=C2C)cc(OC)c1OC,4.17%,–,"29.1 µM [falling, single point]"
CC(C)(C)c1ccc(C(=O)NCCCN2CCN(CCCNC(=O)c3ccc(C(C)(C)C)cc3)CC2)cc1,-76.1%,"29.1 µM [falling, single point]","18.4 µM [falling, single point]"
Cn1c(=O)c(C(=O)COC(=O)c2cc(C(F)(F)F)nc3c(C(F)(F)F)cccc23)c(N)n(CC2CC2)c1=O,0.312%,"6.51 µM [falling, single point]","6.51 µM [falling, single point]"
COc1cccc(-c2nn(-c3ccc(C)cc3)cc2C(=O)N2CCN(C3CCS(=O)(=O)C3)CC2)c1 (centres undefined),-21.3%,–,"0.461 µM [falling, partial curve, poor fit]"
COc1ccc2[nH]c(=O)c(COC(=O)c3cccs3)cc2c1,49.4%,"18.4 µM [rising, partial curve]",–
COc1cc(OC)cc(-c2sc3ccc(OC)cc3c2C#CC(C)(C)O)c1,12%,–,"0.0651 µM [rising, single point]"
N#Cc1nc(COc2ccccc2)oc1N1CCN(Cc2ccccc2)CC1,–,–,"16.4 µM [rising, partial curve]"
O=C(Nc1nnc(-c2ccccc2)s1)c1ccccc1O,-35%,"29.1 µM [falling, single point]","25.9 µM [falling, single point]"
CCOC(=O)c1c(NC(=O)CCS(=O)(=O)c2ccccc2)sc2c1CCN(C)C2,-11.8%,–,"6.51 µM [falling, single point]"
CCOc1cc(/C=C/C(=O)OCC(=O)NCCN2C(=O)CSC2=O)ccc1OCC(C)C,-5.71%,–,–
C=CCOc1ccc(CNCc2cccnc2)cc1,-3.88%,–,–
COc1cc(C(c2c(C)[nH][nH]c2=O)c2c(C)[nH][nH]c2=O)ccc1OCc1ccc([N+](=O)[O-])cc1,-8.33%,"0.13 µM [falling, full curve, poor fit]","0.731 µM [falling, full curve]"
Cc1ccc(S(=O)(=O)NNC(=S)NC(C)(C)C)cc1,5.48%,–,"0.0731 µM [falling, full curve, poor fit]"
O=C(CCC(=O)N(CC(=O)NC1CCCCC1)Cc1ccccc1)Nc1nccs1,38.5%,"29.1 µM [rising, single point]",–
COc1cc(CC(=O)Nc2ccc3nc(C)sc3c2)cc(OC)c1OC,49%,"1.84 µM [rising, full curve]","0.0291 µM [rising, full curve, poor fit]"
Cc1cc(C(=O)NCCC2=CCCCC2)no1,35.3%,"29.1 µM [rising, single point]","18.4 µM [falling, single point]"
C=CCNC(=O)NC(=O)COC(=O)[C@H](C)NS(=O)(=O)c1c(C)c(C)cc(C)c1C,-36.8%,"10.3 µM [falling, partial curve]","13 µM [falling, partial curve, poor fit]"

# Shown as tab-separated lines: 3 of the compounds above
SMILES	cell number change	AC50 [1]	AC50 [2]
CCN(CC(=O)Nc1c(F)cccc1F)C(=O)c1cc(S(=O)(=O)N(C)C)ccc1N1CCCC1	–	–	0.651 µM [rising, full curve, poor fit]
CCOC(=O)/C(C#N)=C/c1c(N2CCN(c3cccc(Cl)c3)CC2)nc2c(C)cccn2c1=O	-23.6%	–	6.51 µM [falling, single point]
COc1cc(/C=C2/C(=O)N(c3ccc(Br)cc3)N=C2C)cc(OC)c1OC	4.17%	–	29.1 µM [falling, single point]
